Reference: paper PMC10542384
These are yes or no findings as the source states them, for the method shown. In cells and extracts the contact can be indirect. Some binding calls cover weakened binding; strength is not graded here. For some assays here: Sequences can lack the tags named with a protein.

The chains behind the UniProt entries cited, without tags or fusion partners. Where a name states a change or a piece, a line headed by the entry shows the natural chain unless it says otherwise.
UniProt P54132: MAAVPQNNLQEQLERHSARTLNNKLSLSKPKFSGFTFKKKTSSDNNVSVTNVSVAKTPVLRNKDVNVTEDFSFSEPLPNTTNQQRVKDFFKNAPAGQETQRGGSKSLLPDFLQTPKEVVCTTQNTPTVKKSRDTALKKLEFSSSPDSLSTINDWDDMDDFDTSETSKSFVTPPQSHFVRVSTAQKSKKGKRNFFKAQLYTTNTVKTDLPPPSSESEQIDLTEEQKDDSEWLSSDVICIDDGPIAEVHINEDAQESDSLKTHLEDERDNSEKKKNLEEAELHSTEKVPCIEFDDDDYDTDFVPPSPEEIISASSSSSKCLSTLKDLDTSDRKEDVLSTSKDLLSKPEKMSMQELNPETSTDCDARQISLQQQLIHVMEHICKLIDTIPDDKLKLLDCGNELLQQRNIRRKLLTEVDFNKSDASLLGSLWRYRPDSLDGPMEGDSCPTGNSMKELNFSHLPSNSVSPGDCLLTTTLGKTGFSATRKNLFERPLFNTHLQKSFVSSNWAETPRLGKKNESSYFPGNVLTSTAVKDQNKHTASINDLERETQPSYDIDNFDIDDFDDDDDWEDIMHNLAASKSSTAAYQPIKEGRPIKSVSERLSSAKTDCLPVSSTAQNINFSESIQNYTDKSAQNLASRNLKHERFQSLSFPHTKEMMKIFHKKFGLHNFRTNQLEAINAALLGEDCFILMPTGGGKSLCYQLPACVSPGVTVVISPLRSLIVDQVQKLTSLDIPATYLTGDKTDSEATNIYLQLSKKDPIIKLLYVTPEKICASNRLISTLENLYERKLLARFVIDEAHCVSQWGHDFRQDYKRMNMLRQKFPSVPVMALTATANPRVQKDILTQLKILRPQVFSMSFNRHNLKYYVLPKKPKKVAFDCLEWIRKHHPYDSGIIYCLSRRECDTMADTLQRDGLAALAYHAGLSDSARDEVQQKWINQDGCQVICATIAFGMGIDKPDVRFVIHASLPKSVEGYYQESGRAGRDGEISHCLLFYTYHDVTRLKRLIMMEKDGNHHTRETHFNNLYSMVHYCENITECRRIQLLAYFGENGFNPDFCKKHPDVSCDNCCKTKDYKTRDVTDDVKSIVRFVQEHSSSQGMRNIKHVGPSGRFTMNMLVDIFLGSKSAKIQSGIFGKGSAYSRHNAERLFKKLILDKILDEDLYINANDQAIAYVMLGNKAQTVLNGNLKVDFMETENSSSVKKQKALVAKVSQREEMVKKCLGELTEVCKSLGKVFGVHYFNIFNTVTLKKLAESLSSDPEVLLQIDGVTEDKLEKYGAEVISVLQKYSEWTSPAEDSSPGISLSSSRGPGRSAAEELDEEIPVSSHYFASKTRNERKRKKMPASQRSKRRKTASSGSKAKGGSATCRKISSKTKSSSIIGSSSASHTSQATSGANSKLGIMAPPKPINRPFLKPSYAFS

Legend:
[1] = molecular target: T1, Arkadia-like 1 (ARKL1) (human (endogenous in U2OS)) (UniProt Q96B23); test: proximity ligation; Duolink PLA on fixed and permeabilised cells (U2OS WT or KO cells complemented with the named constructs; Fig. 4d and 5b in cells expressing GFP-PML)
T1 sequence: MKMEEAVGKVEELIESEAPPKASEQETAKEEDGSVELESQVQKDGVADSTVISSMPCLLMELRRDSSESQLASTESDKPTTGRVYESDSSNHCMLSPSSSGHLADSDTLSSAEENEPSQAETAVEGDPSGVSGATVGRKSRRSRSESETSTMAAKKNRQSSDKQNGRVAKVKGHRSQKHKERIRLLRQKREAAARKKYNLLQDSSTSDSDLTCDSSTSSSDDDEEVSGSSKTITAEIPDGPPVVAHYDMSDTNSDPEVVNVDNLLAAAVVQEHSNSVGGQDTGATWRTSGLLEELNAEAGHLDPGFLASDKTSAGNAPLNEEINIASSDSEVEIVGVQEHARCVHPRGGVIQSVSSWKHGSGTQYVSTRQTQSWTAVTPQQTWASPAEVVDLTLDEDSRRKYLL

HA-ARKL1 wild type [2] = molecular target: T2, HA-ARKL1 wild type (UniProt Q96B23); test: as above
T2 sequence: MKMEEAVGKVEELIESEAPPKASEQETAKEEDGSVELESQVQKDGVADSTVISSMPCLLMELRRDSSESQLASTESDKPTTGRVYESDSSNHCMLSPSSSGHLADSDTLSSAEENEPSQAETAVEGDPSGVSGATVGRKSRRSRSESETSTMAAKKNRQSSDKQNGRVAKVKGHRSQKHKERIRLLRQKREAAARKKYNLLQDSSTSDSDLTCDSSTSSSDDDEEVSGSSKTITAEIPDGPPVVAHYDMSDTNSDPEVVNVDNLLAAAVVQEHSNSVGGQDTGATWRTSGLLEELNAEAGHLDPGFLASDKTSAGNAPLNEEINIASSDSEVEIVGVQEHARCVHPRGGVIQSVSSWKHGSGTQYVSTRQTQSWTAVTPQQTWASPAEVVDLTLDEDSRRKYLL

[3] = molecular target: T3, ARKL1 S328A mutant (ARKL1^S328A) (UniProt Q96B23); test: co-IP; Flag/HA beads or antibodies on Protein A/G beads with lysates of 293T or U2OS cells in modified NETN buffer (20 mM Tris-HCl pH 7.6, 95 mM NaCl, 1 mM EDTA, 0.5% Nonidet P-40), 4 °C overnight, blot; Fig. 6j with or without the CK2 inhibitor TBB
T3 sequence: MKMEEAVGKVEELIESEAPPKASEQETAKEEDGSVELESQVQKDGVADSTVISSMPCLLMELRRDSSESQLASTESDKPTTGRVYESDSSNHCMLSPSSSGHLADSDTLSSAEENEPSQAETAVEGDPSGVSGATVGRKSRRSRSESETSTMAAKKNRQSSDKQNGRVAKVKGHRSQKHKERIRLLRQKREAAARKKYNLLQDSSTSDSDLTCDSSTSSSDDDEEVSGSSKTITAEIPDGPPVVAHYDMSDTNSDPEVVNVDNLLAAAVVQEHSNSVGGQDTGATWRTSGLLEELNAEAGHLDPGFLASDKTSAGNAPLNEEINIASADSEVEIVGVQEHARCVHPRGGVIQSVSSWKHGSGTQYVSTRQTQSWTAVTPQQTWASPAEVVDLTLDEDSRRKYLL

[4] = molecular target: T4, ARKL1 wild type (ARKL1^WT), construct not told (UniProt Q96B23); test: as above
T4 sequence: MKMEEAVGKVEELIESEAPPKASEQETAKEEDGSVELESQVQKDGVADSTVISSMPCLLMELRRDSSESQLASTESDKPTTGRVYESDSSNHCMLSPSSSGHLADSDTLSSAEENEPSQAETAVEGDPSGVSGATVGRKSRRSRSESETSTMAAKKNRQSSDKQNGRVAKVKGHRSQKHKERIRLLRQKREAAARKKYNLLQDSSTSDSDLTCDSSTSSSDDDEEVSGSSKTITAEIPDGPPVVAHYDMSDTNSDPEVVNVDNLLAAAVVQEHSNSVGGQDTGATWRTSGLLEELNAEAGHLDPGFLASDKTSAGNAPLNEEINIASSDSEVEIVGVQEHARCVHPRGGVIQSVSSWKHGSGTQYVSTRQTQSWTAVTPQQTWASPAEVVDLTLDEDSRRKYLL

ARKL1-Flag = molecular target: T5, ARKL1-Flag (UniProt Q96B23); test: as above
T5 sequence: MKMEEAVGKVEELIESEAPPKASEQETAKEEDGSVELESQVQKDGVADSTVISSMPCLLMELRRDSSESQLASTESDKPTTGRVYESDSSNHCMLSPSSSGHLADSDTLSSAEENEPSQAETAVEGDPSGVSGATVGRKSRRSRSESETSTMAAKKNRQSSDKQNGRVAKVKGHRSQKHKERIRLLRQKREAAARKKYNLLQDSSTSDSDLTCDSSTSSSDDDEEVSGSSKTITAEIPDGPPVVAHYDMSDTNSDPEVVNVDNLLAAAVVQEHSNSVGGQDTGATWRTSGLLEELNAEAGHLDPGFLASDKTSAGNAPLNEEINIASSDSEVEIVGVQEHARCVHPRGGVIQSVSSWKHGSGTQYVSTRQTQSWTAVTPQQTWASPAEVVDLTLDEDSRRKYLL

[5] = molecular target: GFP-tagged BLM K317R/K331R mutant (UniProt P54132); test: as above
GFP-tagged BLM wild type = GFP-tagged BLM wild type (UniProt P54132); test: as above
HA-ARKL1 wild type [6] = molecular target: T2, HA-ARKL1 wild type; test: as above

Measured: binding

B1: RNF111 (Arkadia) (protein, UniProt Q6ZNA4 1-994)
chain: MSQWTPEYNELYTLKVDMKSEIPSDAPKTQESLKGILLHPEPIGAAKSFPAGVEMINSKVGNEFSHLCDDSQKQEKEMNGNQQEQEKSLVVRKKRKSQQAGPSYVQNCVKENQGILGLRQHLGTPSDEDNDSSFSDCLSSPSSSLHFGDSDTVTSDEDKEVSVRHSQTILNAKSRSHSARSHKWPRTETESVSGLLMKRPCLHGSSLRRLPCRKRFVKNNSSQRTQKQKERILMQRKKREVLARRKYALLPSSSSSSENDLSSESSSSSSTEGEEDLFVSASENHQNNPAVPSGSIDEDVVVIEASSTPQVTANEEINVTSTDSEVEIVTVGESYRSRSTLGHSRSHWSQGSSSHASRPQEPRNRSRISTVIQPLRQNAAEVVDLTVDEDEPTVVPTTSARMESQATSASINNSNPSTSEQASDTASAVTSSQPSTVSETSATLTSNSTTGTSIGDDSRRTTSSAVTETGPPAMPRLPSCCPQHSPCGGSSQNHHALGHPHTSCFQQHGHHFQHHHHHHHTPHPAVPVSPSFSDPACPVERPPQVQAPCGANSSSGTSYHEQQALPVDLSNSGIRSHGSGSFHGASAFDPCCPVSSSRAAIFGHQAAAAAPSQPLSSIDGYGSSMVAQPQPQPPPQPSLSSCRHYMPPPYASLTRPLHHQASACPHSHGNPPPQTQPPPQVDYVIPHPVHAFHSQISSHATSHPVAPPPPTHLASTAAPIPQHLPPTHQPISHHIPATAPPAQRLHPHEVMQRMEVQRRRMMQHPTRAHERPPPHPHRMHPNYGHGHHIHVPQTMSSHPRQAPERSAWELGIEAGVTAATYTPGALHPHLAHYHAPPRLHHLQLGALPLMVPDMAGYPHIRYISSGLDGTSFRGPFRGNFEELIHLEERLGNVNRGASQGTIERCTYPHKYKKVTTDWFSQRKLHCKQDGEEGTEEDTEEKCTICLSILEEGEDVRRLPCMHLFHQVCVDQWLITNKKCPICRVDIEAQLPSES
binds: all assays above
